Source: article PMC6486640, “The ATPase mechanism of UvrA2 reveals the distinct roles of proximal and distal ATPase sites in nucleotide excision repair” (Nucleic Acids Research, 2019)
These are yes or no findings as the source states them, for the method shown. Some results given as binding are weak or reduced against the parent protein; the word gives no strength.

Target: Thermotoga maritima UvrA Δ117-399 (Thermotoga maritima) (UniProt Q9WYV0)
Experiment: crystal structure; 2.0 Å; T. maritima UvrA2 dimer, fully ADP-bound, open conformation; both purified

- binding: binds
B1: Thermotoga maritima UvrA Δ117-399 (enzyme, UniProt Q9WYV0)
chain: MNEIVVKGARVHNLKNITVRIPKNRLVVITGVSGSGKSSLAMDTIYAEGQRRYLESLSTYARQFLGNLKKPDVDEIEGLSPAIAIDQKTVSHNPRSTVGTVTEIYDYLRVLYARIGKINGLNIHEFTELSISEELEFLKNLNLTEREREIVGELLKEIEKRLEFLVDVGLEYLTLSRSATTLSGGESQRIRLATQIGSGLTGVIYVLDEPTIGLHPRDTERLIKTLKKLRDLGNTVIVVEHDEEVIRNADHIIDIGPGGGTNGGRVVFQGTVDELLKNPDSSLTGEYLSGKRKITVNKTRRLPYASLKIKGVRHNNLKNIDVEIPLGVFVCVTGVSGSGKSSLVMETLYPALMNLLHKTKLPAGEFDSIEGHENIDKMIAIDQSPIGRTPRSNPATYTKVFDEIRSLFAMTPAAKARGYNKSRFSFNLKGGRCEACQGQGYVKIEMLFLPDVYVECDVCKGKRYNRETLEITYKGKNISDILDMTVDEALEFFKNIPSIKRTLQVLHDVGLGYVKLGQPATTLSGGEAQRIKLASELRKRDTGRTLYILDEPTVGLHFEDVRKLVEVLHRLVDRGNTVIVIEHNLDVIKNADHIIDLGPEGGKEGGYIVATGTPEEIAKNPHSYTGRFLKNVL
